# Laboratory results from PubChem BioAssay (NCATS).
# Where “and” joins values, the source holds several entries; their conditions need not be identical. Equal values may be shown once. This list was built around the results that the source calls inconclusive (neither active nor inactive); the mix of calls is not that of the screen. Calls of active or inactive are those of the source. The call rests on the fitted dose curve; in most records, active means well fitted curve in either direction with a large enough effect (not every such curve was filed as active); inconclusive means small, poorly fitted or top-dose-only effect, or another doubt; inactive means flat fitted curve, though single readings scatter.
# Assay: Stat Signaling Pathway (AID 446);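 further: ME-180 cervical cancer cells given 40 pM IL-6 alongside compound; SIE-controlled beta-lactamase reporter measured as 460/530 nm FRET emission ratio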
# Conditions: ME-180 (cervical carcinoma) SIE beta-lactamase reporter, IL-6 stimulated, 5 h; at 17.2 µM (top of the series) unless noted
# Method in brief: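 IL-6/STAT signaling read in ME-180 cells via an SIE beta-lactamase reporter. Stimulus was 40 pM IL-6 (its AC50) for 5 hrs, so both activation and inhibition register.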
# On the % scale 0 is the no-effect control and ±100 the full control effect.
row,Compound,"activity, negative = inhibition"
1,CC(=O)Oc1ccc(C(c2ccc(OC(C)=O)cc2)c2ccccn2)cc1,inconclusive: -30.1% [inhibitor] and inconclusive: -50.4% [inhibitor]
2,CCOC(=O)C1=C(C)NC(C)=C(C(=O)OC)C1c1cccc([N+](=O)[O-])c1 (configuration not stated),inconclusive: -20.8% [inhibitor]
3,CNNCc1ccc(C(=O)NC(C)C)cc1,inconclusive: -74.9% [inhibitor]
4,CCCCOc1cc(C(=O)NCCN(CC)CC)c2ccccc2n1,inactive: 0.235% and inactive: -1.92% and inactive: -8.41%
5,CC1=C(/C=C/C(C)=C/C=C/C(C)=C/C(=O)O)C(C)(C)CCC1,inconclusive: -34.5% [inhibitor]
6,NC[C@H](O)c1ccc(O)c(O)c1,inconclusive: 4.64% [activator] [at 38 µM]
7,O=C(c1ccc(OCCN2CCCCC2)cc1)c1c(-c2ccc(O)cc2)sc2cc(O)ccc12,inconclusive: -46.5% [inhibitor] [at 38 µM]
8,O=S(=O)(O)c1ccc2cc(N=Nc3cc(S(=O)(=O)O)c4cccnc4c3O)ccc2c1,inconclusive: 2.46% [activator] [at 7.69 µM]
9,C1CCC(C(CC2CCCCN2)C2CCCCC2)CC1 (configuration not stated),inactive: 5.25%
10,CCCN(CCC)CCc1cccc2c1CC(=O)N2,inconclusive: -40.4% [inhibitor] [at 38 µM]
11,CN1CCN(CCC=C2c3ccccc3Sc3ccc(S(=O)(=O)N(C)C)cc32)CC1,inconclusive: -30.4% [inhibitor] [at 38 µM]
12,CCN(CC)CCNc1ccc(CO)c2sc3ccccc3c(=O)c12,inconclusive: 74.1% [activator]
13,CC1(C)S[C@@H]2[C@H](NC(=O)Cc3ccccc3)C(=O)N2[C@H]1C(=O)O,inactive: 0.622% and inactive: 2.67%
14,O=c1n(CCCN2CCN(c3cccc(Cl)c3)CC2)nc2ccccn12,inconclusive: -30.4% [inhibitor] [at 38 µM]
15,COc1cc(NS(C)(=O)=O)ccc1Nc1c2ccccc2nc2ccccc12,inconclusive: 153% [activator] [at 38 µM]
16,CC(=O)c1ccc2c(c1)N(CCCN1CCC(CCO)CC1)c1ccccc1S2,inactive: 9.61%
17,CCCCC1(COC(=O)CCC(=O)O)C(=O)N(c2ccccc2)N(c2ccccc2)C1=O,inactive: 4.02%

# Shown tab-delimited: entries from further up.
row	Compound	activity, negative = inhibition
7	O=C(c1ccc(OCCN2CCCCC2)cc1)c1c(-c2ccc(O)cc2)sc2cc(O)ccc12	inconclusive: -46.5% [inhibitor] [at 38 µM]
11	CN1CCN(CCC=C2c3ccccc3Sc3ccc(S(=O)(=O)N(C)C)cc32)CC1	inconclusive: -30.4% [inhibitor] [at 38 µM]
